Measurements reported in PubChem BioAssay AID1259254 (NCATS, 2017)

- Assay: 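Genome-wide screen for genes that prevent DNA re-replication in cancer cells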 (primary screen)
- Cell system: human HCT116 colorectal cancer cells
- Reagent: single siRNA against human genes
- Timing: 3 days
- Measurement: 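Nuclei stained with Hoechst and imaged; cell-cycle phase assigned by DNA content; G2 share scaled per plate, non-targeting siRNA 0%, GMNN siRNA 100%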
- Scale: G2 robust z-score and G2 cells, % of GMNN control: higher = more G2 cells, more excess DNA replication
- Call rule: 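An siRNA counts as active if its G2 robust z-score lies at least 5 MADs above the screen median; here such calls match roughly 38% of GMNN control or more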
This is one part, drawn at random, of about 59,000 reagents. About 1,550 of all reagents (2.6%) count as active. 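G2 share is only a proxy for re-replication; each gene was hit by three separate siRNAs, and active genes were retested.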 Entries without a mark were called inactive. The numbers tell different reagents against one gene apart. Further read-outs or replicates are left out here. The record does not give: the amount of reagent.

Knock-down of GOLGA1 (golgin A1) #1 resulted in: G2 robust z-score -0.0664; G2 cells, % of GMNN control 2.5.
Against GOLGA1 (golgin A1) #2, the entry reads G2 robust z-score 1.08; G2 cells, % of GMNN control 10.5.
Silencing of GOLGA1 (golgin A1) #3 resulted in: G2 robust z-score -0.539; G2 cells, % of GMNN control -0.822.
Knock-down of LTBR (lymphotoxin beta receptor) #1 came out at: G2 robust z-score 1.07; G2 cells, % of GMNN control 10.5.
Depletion of LTBR (lymphotoxin beta receptor) #2 gave: G2 robust z-score -0.771; G2 cells, % of GMNN control -2.46.
LTBR (lymphotoxin beta receptor) #3 gave G2 robust z-score -0.901; G2 cells, % of GMNN control -3.37.
ADCY1 (adenylate cyclase 1) #1 gave G2 robust z-score -0.664; G2 cells, % of GMNN control -1.7.
Against ADCY1 (adenylate cyclase 1) #2, the entry reads G2 robust z-score 1.11; G2 cells, % of GMNN control 10.8.
ADCY1 (adenylate cyclase 1) #3 gave G2 robust z-score -1.35; G2 cells, % of GMNN control -6.55.
For OLFM3 (olfactomedin 3) #1, the values are G2 robust z-score -0.64; G2 cells, % of GMNN control -1.54.
After knock-down of OLFM3 (olfactomedin 3) #2 the results were G2 robust z-score -0.827; G2 cells, % of GMNN control -2.85.
Silencing of OLFM3 (olfactomedin 3) #3 gave: G2 robust z-score 0.101; G2 cells, % of GMNN control 3.68.
For CLXN (calaxin) #1 the deposit lists G2 robust z-score 0.753; G2 cells, % of GMNN control 8.26.
With knock-down of CLXN (calaxin) #2, the record shows G2 robust z-score 0.0298; G2 cells, % of GMNN control 3.18.
CLXN (calaxin) #3 gave G2 robust z-score 0.645; G2 cells, % of GMNN control 7.5.
Knock-down of RAD51AP1 (RAD51 associated protein 1) #1 came out at: G2 robust z-score -0.0486; G2 cells, % of GMNN control 2.63.
Against RAD51AP1 (RAD51 associated protein 1) #2, the values are G2 robust z-score -0.542; G2 cells, % of GMNN control -0.844.
Silencing of RAD51AP1 (RAD51 associated protein 1) #3 resulted in: G2 robust z-score 0.911; G2 cells, % of GMNN control 9.38.

Reprinted from the listing for reference:
RAD51AP1 (RAD51 associated protein 1) #2 — G2 robust z-score: -0.542; G2 cells, % of GMNN control: -0.844
RAD51AP1 (RAD51 associated protein 1) #3 — G2 robust z-score: 0.911; G2 cells, % of GMNN control: 9.38
